Data as given in PubChem BioAssay AID602196 (INSERM, 2012)

Test: 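Knock-downs that protect lung cancer cells from cisplatin or sensitise them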
Cell system: human A549 lung cancer cells
Reagents: siRNA pair against human genes
Time to read-out: 48 h transfection before cisplatin; time from cisplatin to read-out not stated
Conditions: cisplatin at a dose killing half of control-siRNA cells; exact dose and duration not given
Measured: 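Shift in cisplatin death relative to control siRNA, from -50 (all cells die) to +50 (no cells die); siRNAs harmful on their own scored 0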
Direction: two-siRNA summed score (-2 to +2): higher = both siRNAs protect from cisplatin killing; -2 means both sensitise; mean protection from cisplatin (shift in death) and protection from cisplatin (shift in death), siRNA C and protection from cisplatin (shift in death), siRNA D: higher = protection from cisplatin killing
Call rule: 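Each siRNA scores 0 if harmful alone by LDH or WST-1, otherwise +1 if it reduces and -1 if it increases cisplatin killing; a gene is active when both siRNAs agree (sum +2 or -2)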
Calls: active = both siRNAs shift cisplatin killing the same way; inactive = no consistent shift, or siRNA harmful alone
The whole screen tested about 23,000 reagents; this is a part drawn at random. Over the whole deposit, 455 (2%) got an active call. 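Active includes both protection and sensitisation; some change values fall well beyond the stated -50 to +50 range.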 A number with no mark means an inactive call. The record does not give: the amount of reagent.

two-siRNA summed score (-2 to +2),mean protection from cisplatin (shift in death) (%),"protection from cisplatin (shift in death), siRNA C (%)","protection from cisplatin (shift in death), siRNA D (%)",Gene,PubChem SID
1,19.9,22.7,17.1,C3orf38,SID131522552
0,2.9,13.8,-8.1,OPN3,SID131510096
0,7.4,29.2,-14.3,VPS9D1,SID131514156
0,7.5,10.5,4.4,LOC256126,SID131514161
0,10.8,34.9,-13.4,TM2D1,SID131516393
0,-6.1,-4.3,-7.9,AKAP1,SID131504204
0,5.2,9.8,0.6,HDAC9,SID131512188
0,1.6,4.7,-1.6,SPECC1L,SID131508858
1,11,11.8,10.2,MINPP1,SID131520744
1,12.9,15.7,10.2,CSNK1A1L,SID131521307
1,27.9,26,29.8,FUT1,SID131522867
0,3.3,11.5,-4.8,LOC389107,SID131510503

Part of the list above in another layout:
OPN3 [SID131510096]
- two-siRNA summed score (-2 to +2): 0
- mean protection from cisplatin (shift in death) (%): 2.9
- protection from cisplatin (shift in death), siRNA C (%): 13.8
- protection from cisplatin (shift in death), siRNA D (%): -8.1

VPS9D1 [SID131514156]
- two-siRNA summed score (-2 to +2): 0
- mean protection from cisplatin (shift in death) (%): 7.4
- protection from cisplatin (shift in death), siRNA C (%): 29.2
- protection from cisplatin (shift in death), siRNA D (%): -14.3

LOC256126 [SID131514161]
- two-siRNA summed score (-2 to +2): 0
- mean protection from cisplatin (shift in death) (%): 7.5
- protection from cisplatin (shift in death), siRNA C (%): 10.5
- protection from cisplatin (shift in death), siRNA D (%): 4.4

Further reagents:
two-siRNA summed score (-2 to +2),mean protection from cisplatin (shift in death) (%),"protection from cisplatin (shift in death), siRNA C (%)","protection from cisplatin (shift in death), siRNA D (%)",Gene,PubChem SID
0,-1.4,-1.5,-1.2,ARSA,SID131506533
1,19.8,7,32.7,OSBPL5,SID131522548
0,-0.5,-4.7,3.6,ANK3,SID131507132
0,0.4,7.7,-6.9,HINT1,SID131507888
0,14.5,8.3,20.6,C1QTNF6,SID131517711
1,13.6,19.4,7.7,MAGEA2B,SID131521454
0,4.6,15.6,-6.3,DKKL1,SID131511715
0,7.8,10,5.6,ISCA1,SID131514415
0,-0.1,4.6,-4.8,KLK4,SID131507491
0,8.4,9.6,7.3,XRCC2,SID131514944
0,9.5,9.9,9.2,LOC442780,SID131515671
